Reference: paper PMC7954794, “Protein context shapes the specificity of SH3 domain-mediated interactions in vivo” (Nature Communications, 2021)
The amount applied is not stated for every result.

B1: YKL051W (protein, UniProt P35735 1-353, looked up)
Protein SFK1: MIQFKSPGNWLFIVPWIAFIPWYGMLIAMLICWASQGHPIYWFMHSEQFPVYISDIGATNLRPLFISCAGWQGLGYVITVALEFFQRSGYLPFQLKKKDPSISDSTSYAEKLHSGKYLMPPYYTKDERNLIFAAFVLGSIGELALLFSSIFSTALYHRVHIAMVSVFVVFMFLSTCCLIAEYFLMGRHYASVHPLASPHFNPQSSEKSFNQDYNTVDELPWYKWKGHVWNKFTISATLKVIWLTLAVVWAICFGAINDRSKSACFEWLLAFWFGIIFMILSADFYLGGRYRQSRYFNHVESFSGYYKYDKALGLYHSEDVLPSDDNAGVIATETASSNIYNNSSSNESIQVVV
B2: YML016C (protein, UniProt P26570 2-692, looked up)
Serine/threonine-protein …: GNSSSKSSKKDSHSNSSSRNPRPQVSRTETSHSVKSAKSNKSSRSRRSLPSSSTTNTNSNVPDPSTPSKPNLEVNHQRHSSHTNRYHFPSSSHSHSNSQNELLTTPSSSSTKRPSTSRRSSYNTKAAADLPPSMIQMEPKSPILKTNNSSTHVSKHKSSYSSTYYENALTDDDNDDKDNDISHTKRFSRSSNSRPSSIRSGSVSRRKSDVTHEEPNNGSYSSNNQENYLVQALTRSNSHASSLHSRKSSFGSDGNTAYSTPLNSPGLSKLTDHSGEYFTSNSTSSLNHHSSRDIYPSKHISNDDDIENSSQLSNIHASMENVNDKNNNITDSKKDPNEEFNDIMQSSGNKNAPKKFKKPIDIDETIQKLLDAGYAAKRTKNVCLKNNEILQICIKAREIFLSQPSLLELSPPVKIVGDVHGQYGDLLRLFTKCGFPPSSNYLFLGDYVDRGKQSLETILLLFCYKIKYPENFFLLRGNHECANVTRVYGFYDECKRRCNIKIWKTFIDTFNTLPLAAIVAGKIFCVHGGLSPVLNSMDEIRHVVRPTDVPDFGLINDLLWSDPTDSPNEWEDNERGVSYCYNKVAINKFLNKFGFDLVCRAHMVVEDGYEFFNDRSLVTVFSAPNYCGEFDNWGAVMSVSEGLLCSFELLDPLDSAALKQVMKKGRQERKLANQQQQMMETSITNDNESQQ
B3: YGR281W (protein, UniProt P53049 1-1477, looked up)
Oligomycin resistance …: MTITVGDAVSETELENKSQNVVLSPKASASSDISTDVDKDTSSSWDDKSLLPTGEYIVDRNKPQTYLNSDDIEKVTESDIFPQKRLFSFLHSKKIPEVPQTDDERKIYPLFHTNIISNMFFWWVLPILRVGYKRTIQPNDLFKMDPRMSIETLYDDFEKNMIYYFEKTRKKYRKRHPEATEEEVMENAKLPKHTVLRALLFTFKKQYFMSIVFAILANCTSGFNPMITKRLIEFVEEKAIFHSMHVNKGIGYAIGACLMMFVNGLTFNHFFHTSQLTGVQAKSILTKAAMKKMFNASNYARHCFPNGKVTSFVTTDLARIEFALSFQPFLAGFPAILAICIVLLIVNLGPIALVGIGIFFGGFFISLFAFKLILGFRIAANIFTDARVTMMREVLNNIKMIKYYTWEDAYEKNIQDIRTKEISKVRKMQLSRNFLIAMAMSLPSIASLVTFLAMYKVNKGGRQPGNIFASLSLFQVLSLQMFFLPIAIGTGIDMIIGLGRLQSLLEAPEDDPNQMIEMKPSPGFDPKLALKMTHCSFEWEDYELNDAIEEAKGEAKDEGKKNKKKRKDTWGKPSASTNKAKRLDNMLKDRDGPEDLEKTSFRGFKDLNFDIKKGEFIMITGPIGTGKSSLLNAMAGSMRKTDGKVEVNGDLLMCGYPWIQNASVRDNIIFGSPFNKEKYDEVVRVCSLKADLDILPAGDMTEIGERGITLSGGQKARINLARSVYKKKDIYLFDDVLSAVDSRVGKHIMDECLTGMLANKTRILATHQLSLIERASRVIVLGTDGQVDIGTVDELKARNQTLINLLQFSSQNSEKEDEEQEAVVAGELGQLKYESEVKELTELKKKATEMSQTANSGKIVADGHTSSKEERAVNSISLKIYREYIKAAVGKWGFIALPLYAILVVGTTFCSLFSSVWLSYWTENKFKNRPPSFYMGLYSFFVFAAFIFMNGQFTILCAMGIMASKWLNLRAVKRILHTPMSYIDTTPLGRILNRFTKDTDSLDNELTESLRLMTSQFANIVGVCVMCIVYLPWFAIAIPFLLVIFVLIADHYQSSGREIKRLEAVQRSFVYNNLNEVLGGMDTIKAYRSQERFLAKSDFLINKMNEAGYLVVVLQRWVGIFLDMVAIAFALIITLLCVTRAFPISAASVGVLLTYVLQLPGLLNTILRAMTQTENDMNSAERLVTYATELPLEASYRKPEMTPPESWPSMGEIIFENVDFAYRPGLPIVLKNLNLNIKSGEKIGICGRTGAGKSTIMSALYRLNELTAGKILIDNVDISQLGLFDLRRKLAIIPQDPVLFRGTIRKNLDPFNERTDDELWDALVRGGAIAKDDLPEVKLQKPDENGTHGKMHKFHLDQAVEEEGSNFSLGERQLLALTRALVRQSKILILDEATSSVDYETDGKIQTRIVEEFGDCTILCIAHRLKTIVNYDRILVLEKGEVAEFDTPWTLFSQEDSIFRSMCSRSGIVENDFENRS
B4: YBR200W (protein, UniProt P29366 1-551, looked up)
Bud emergence protein 1: MLKNFKLSKRDSNGSKGRITSADISTPSHDNGSVIKHIKTVPVRYLSSSSTPVKSQRDSSPKNRHNSKDITSPEKVIKAKYSYQAQTSKELSFMEGEFFYVSGDEKDWYKASNPSTGKEGVVPKTYFEVFDRTKPSSVNGSNSSSRKVTNDSLNMGSLYAIVLYDFKAEKADELTTYVGENLFICAHHNCEWFIAKPIGRLGGPGLVPVGFVSIIDIATGYATGNDVIEDIKSVNLPTVQEWKSNIARYKASNISLGSVEQQQQQSITKPQNKSAKLVDGELLVKASVESFGLEDEKYWFLVCCELSNGKTRQLKRYYQDFYDLQVQLLDAFPAEAGKLRDAGGQWSKRIMPYIPGPVPYVTNSITKKRKEDLNIYVADLVNLPDYISRSEMVHSLFVVLNNGFDREFERDENQNNIKTLQENDTATFATASQTSNFASTNQDNTLTGEDLKLNKKLSDLSLSGSKQAPAQSTSGLKTTKIKFYYKDDIFALMLKGDTTYKELRSKIAPRIDTDNFKLQTKLFDGSGEEIKTDSQVSNIIQAKLKISVHDI
B5: YCR002C (protein, UniProt P25342 1-322, looked up)
Cell division control protein …: MDPLSSVQPASYVGFDTITNQIEHRLLKKGFQFNIMVVGQSGLGKSTLINTLFASHLIDSATGDDISALPVTKTTEMKISTHTLVEDRVRLNINVIDTPGFGDFIDNSKAWEPIVKYIKEQHSQYLRKELTAQRERFITDTRVHAILYFLQPNGKELSRLDVEALKRLTEIANVIPVIGKSDTLTLDERTEFRELIQNEFEKYNFKIYPYDSEELTDEELELNRSVRSIIPFAVVGSENEIEINGETFRGRKTRWSAINVEDINQCDFVYLREFLIRTHLQDLIETTSYIHYEGFRARQLIALKENANSRSSAHMSSNAIQR
B6: YDR379W (protein, UniProt Q06407 1-1009, looked up)
Rho-type GTPase-activating …: MSADPINDQSSLCVRCNKSIASSQVYELESKKWHDQCFTCYKCDKKLNADSDFLVLDIGTLICYDCSDKCTNCGDKIDDTAIILPSSNEAYCSNCFRCCRCSNRIKNLKYAKTKRGLCCMDCHEKLLRKKQLLLENQTKNSSKEDFPIKLPERSVKRPLSPTRINGKSDVSTNNTAISKNLVSSNEDQQLTPQVLVSQERDESSLNDNNDNDNSKDREETSSHARTVSIDDILNSTLEHDSNSIEEQSLVDNEDYINKMGEDVTYRLLKPQRANRDSIVVKDPRIPNSNSNANRFFSIYDKEETDKDDTDNKENEIIVNTPRNSTDKITSPLNSPMAVQMNEEVEPPHGLALTLSEATKENNKSSQGIQTSTSKSMNHVSPITRTDTVEMKTSTSSSTLRLSDNGSFSRPQTADNLLPHKKVAPSPNKKLSRSFSLKSKNFVHNLKSKTSEMLDPKHPHHSTSIQESDTHSGWGVSSTHTNIRKSKAKKNPVSRGQSDSTIYNTLPQHGNFTVPEFNHKKAQSSLGSISKKQNSNDTATNRRINGSFTSSSSGHHIAMFRTPPLESGPLFKRPSLSSESAHHRSSSLQTSRSTNALLEDDSTKVDATDESATSLEKDFYFTELTLRKLKLDVRELEGTKKKLLQDVENLRLAKERLLNDVDNLTREKDKQSASSRESLEQKENIATSITVKSPSSNSDRKGSISNASPKPRFWKIFSSAKDHQVGDLESQQRSPNSSSGGTTNIAQKEISSPKLIRVHDELPSPGKVPLSPSPKRLDYTPDGSHLYGSSLQARCAYEKSTVPIIIRCCIDRIEKDDIGLNMEGLYRKSGSQTLVEEIENEFAQNNSLHSDTLSPKLNALLNQDIHAVASVLKRYLRKLPDPVLSFSIYDALIDLVRNNQLIERLPLNNDKFLDSPQKVTIYEMVLKSLLEIFKILPVEHQEVLKVLAAHIGKVRRCSERNLMNLHNLSLVFAPSLIHDFDGEKDIVDMKERNYIVEFILGNYRDIFKQA
B7: YCR030C (protein, UniProt P25623 1-870, looked up)
Suppressor of yeast profilin …: MTEQRTKYADSILTTKSPYEATETIRIRLSQVKLLNKDFYLLFKELANLKRNYAQQLRKIIAENEDITKILNAQMIESNVLTPQEMSAFRFNSLGELRNVWDTVIEELKSDLKSSTEYYNTLDQQVVRELKESVENNTSWRESKDLHSKLSKNAASIEHYSKNNENSSHLEEARRQWDQQSPYLFELFETIDYNRLDTLKNCMLRFQTSFSDYLLNTTKECETVMTKFLAFEPQSEIDRFAKDASQYNFQLSSSSKEVVPNNASPASATGARPVSVSNGAANTEREKKSPQKDKRKSAFGNIGHRLASASSSLTHNDLMNNEFSDSTNNSSLKSKKSSHTLRSKVGSIFGRNKTKNKRQQQSSSNSHIQASITETPNNSSTRVSSTATSSIYQKQRRPTYSSSKSNNWTPGEASDTPPLPPHATPKNVDAPVTADTPPAQTFTPSEVPPSTPQQSSPPTAKEPDSSNLPKTVPISISQPPLQPQSKTKPLPVEPASPSISLPTATVDNQPSGQVDSRPLHIRAPALPPSRKQNFIHNRDSQLYDSLPNHGSGATPTSSSLSSIPQERPVSTLSSQITGELRELNPQATGSSTSLVGQSLFQHSSLDTSQFGLNASIAEVLNASFKDGMLQNSQLIGEIALNYLPNSVMNSPLPIGINLRINNGAKFEKVILNQAFIERVAPEEFKVNPSFIDSRTLGAIKYSIKEPIAPIVIHPVWRFESHQASVVLTVKMSPSLPDEISQIVIEDLVVFVNIDGANATSALSKPQGSFSKEKKRITWRFKEPVVLTRNGEGQRLIARFITDGLAHESAKGVITKFTISETDNVALPHSGAGSGITLTCQELDENNPFGGEWLDVNTKRTLTTGNYHGLA

Assays:
Format in all cases: cell-based, Saccharomyces cerevisiae
Design in all cases: key: 0: SH3-independent; 1: SH3-dependent PPIs; 2: SH3-inhibited PPIs
BBC1 = assay: DHFR-PCA on solid medium, bait BBC1 (Fig. 1B); settings: bait BBC1, label = prey
Source text: (§1) Supplement 41467_2021_21873_MOESM8_ESM.xlsx, sheet "Fig1B" | column: medsize; medrep; Ratio; Score

BOI2 = assay: DHFR-PCA on solid medium, bait BOI2 (Fig. 1B); settings: bait BOI2, label = prey
Source text: as §1

BOI1 = assay: DHFR-PCA on solid medium, bait BOI1 (Fig. 1B); settings: bait BOI1, label = prey
Source text: as §1

BUD14 = assay: DHFR-PCA on solid medium, bait BUD14 (Fig. 1B); settings: bait BUD14, label = prey
Source text: as §1

Molecule	Score (BBC1)	Score (BOI2)	Score (BOI1)	Score (BUD14)
B1	0	0	2	–
B2	1	0	2	–
B3	1	0	2	–
B4	–	0	0	–
B5	–	0	1	–
B6	–	0	2	–
B7	–	–	–	0
